Test results published in PubChem BioAssay AID504467 (National Center for Advancing Translational Sciences (NCATS), 2011).
About 7,700 (2.3%) of roughly 330,000 compounds were called active. Inconclusive means that the source gave no clear call. Such entries were picked first, then a sample of the others. Calls follow the shape of the dose curve; as a rule, active = well fitted inhibition curve with a large enough effect; inconclusive = small, poorly fitted or top-dose-only effect, or effect the other way; inactive = flat fitted curve, though single readings scatter. A potency beside an inconclusive call is a rough fit, not a confirmed value.

experiment: qHTS screen for small molecules that inhibit ELG1-dependent DNA repair in human embryonic kidney (HEK293T) cells expressing luciferase-tagged ELG1; details: HEK293T ELG1-luciferase reporter, luminescence, 16 h, DNA damage induced by 5-fluorouridine; series mostly up to 46.1 µM; also: nearly all actives have a fitted effect of over 55% in size
Procedure, shortened: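 DMSO vehicle served as the neutral condition. Each well held 2,000 cells given 5-fluorouridine plus compound; after 16 hr at 37 °C/5% CO2, ONE-Glo was added and luciferase measured 30 min later.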
Potency is read from the fitted curve at half-maximal effect.

| Compound | Potency |
| --- | --- |
| C=CCOc1ccc(CC2C(=O)N(C)C(=O)N(C)C2=O)cc1 | inactive |
| CN1CCN(CC(=O)Nc2ccc([N+](=O)[O-])cc2C(=O)c2ccccc2)CC1 | inactive |
| CN(CCc1ccccc1)C(=O)c1ccc(NC(=O)Cc2cccc([N+](=O)[O-])c2)cc1 | inconclusive: 18.3 µM [inhibitor, single point] |
| C[C@H]1CCCC(=O)CCC/C=C/c2cc(O)cc(O)c2C(=O)O1 | active: 20.6 µM |
| COc1ccccc1/C=N/N=C(/N)N[N+](=O)[O-] | inconclusive: 20.6 µM [activator, single point] |
| O=C(CSc1ccc(-c2ccco2)nn1)Nc1ccccc1 | inconclusive: 1.46 µM [inhibitor, single point] |
| N#Cc1ccccc1Cn1cc(C(=O)c2ccccc2F)c2ccccc21 | inconclusive: 32.6 µM [inhibitor, single point] |
| COC(=O)C1C(O)C(C)C(O)C(C)/C=C\C=C(/C)C(=O)Nc2c(C)c(OC(C)=O)c3c(c2O)C(=O)C(C)=C2OCOC(=C23)/C(C)=C/C(C)(O)C(O)C(C)C1O (stereo not drawn) | inactive |
| O=C1C=C2C=C[C@@H]3CC2(O1)[C@H]1CCCCN31 | inconclusive: 35.5 µM [inhibitor, single point] |
| CCCCCCN=C(CC)c1c(O)n(CCCC)c(=O)[nH]c1=O | inconclusive: 4.11 µM [inhibitor, partial curve, poor fit] |
| COP(=O)(OC)C(NC(C)=O)C(Cl)(Cl)Cl (stereo not drawn) | inactive |
| C1=CC(Cc2cncs2)c2ccccc21 (stereo not drawn) | inconclusive: 20.6 µM [activator, single point] |
| CCOC(=O)c1c(C)n(Cc2ccccc2)c2ccc(OCC(O)CN3C(=O)CNC3=O)cc12 (stereo not drawn) | inconclusive: 23.1 µM [inhibitor, partial curve] |
| O=C(N/N=C/c1c(O)n(CCC2=CCCCC2)c(=O)[nH]c1=O)c1ccccc1 | inconclusive: 18.4 µM [activator, partial curve, poor fit] |
| COc1cc(C[C@@H](C)N)c(OC)cc1I | inconclusive: 0.366 µM [inhibitor, partial curve, poor fit] |
| CCC1=Nc2cc(C(=O)N3CCC4(CC3)OCCO4)ccc2Sc2ccc(Br)cc21 | inconclusive: 16.4 µM [inhibitor, partial curve, poor fit] |
| O=C1NC(c2cccnc2)Nc2sc3c(c21)CCCC3 (stereo not drawn) | inconclusive: 25.9 µM [activator, single point] |
| CC(=O)N1CCCSC1=Nc1ccccc1 | inactive |
| CCN(CC)C(=O)Oc1ccc2ccccc2c1Cl | inconclusive: 20.6 µM [activator, single point] |
| Cn1c(O)c(C=NCCN2CCN(C(=O)Nc3ccccc3)CC2)c(=O)n(C)c1=O | inactive |
| C1CCC2CCCCC2C1 (stereo not drawn) | inconclusive: 16.4 µM [activator, single point] |
| C=CCn1c(O)c(C(C)=NC2CCN(Cc3ccccc3)CC2)c(=O)[nH]c1=O | inactive |
| O=P(O)(O)c1ccccc1OCCOCCOCCOCCOc1ccccc1P(=O)(O)O | inconclusive: 4.61 µM [activator, full curve] |

| Compound | Potency |
| --- | --- |
| Cc1c(N=Nc2c(O)n(-c3ccc(Br)cc3)c(=O)[nH]c2=O)c(=O)n(-c2ccccc2)n1C | inconclusive: 23.1 µM [inhibitor, single point] |
| Cc1ccc(-n2c(C)cc(/C=C3/C(=O)NC(=O)N(C)C3=O)c2C)cc1 | inactive |
| C[C@]12CCC3C(CC[C@H]4C[C@H](O)CC[C@]34C)C1C[C@@H](CCCCl)[C@@H]2O (stereo partly drawn) | inconclusive: 29.1 µM [inhibitor, single point] |
| O=C(Cc1ccc(S(=O)(=O)N2CCCC2)s1)N1CCN(c2ccc(F)cc2)CC1 | inconclusive: 25.9 µM [inhibitor, single point] |
| CN(C)C(=O)Oc1ccc2c(c1)O/C(=C\c1cccc([N+](=O)[O-])c1)C2=O | inactive |
| C[C@]12CCC3[C@@H](CC[C@@H]4C[C@H](O)CC[C@]34C)[C@@H]1CCC2=O (stereo partly drawn) | inactive |
| COCCCn1c(N)c(C(=O)Nc2ccccc2)c2nc3ccccc3nc21 | active: 16.4 µM |
| C=CCn1c(=O)c(C=Nc2cccnc2Cl)c(O)n(CCCC)c1=O | inactive |
| COC(=O)CC1(CC(=O)OC)C(=O)N(c2ccccc2)C(=O)N(c2ccccc2)C1=O | inactive |
| COc1ccc(C2=NCC(=S)Nc3ccc(Cl)cc32)cc1Cl | inconclusive: 23.1 µM [inhibitor, partial curve, poor fit] |
| CCOc1cc2c(cc1OCC)-n1cccc1C(c1cc(C)c(OC)cc1C)NC2 (stereo not drawn) | inconclusive: 14.6 µM [inhibitor, partial curve] |
| Cc1ccc(S(=O)(=O)N(C)C/N=C(\N)N[N+](=O)[O-])cc1 | inactive |
| COC(=O)C1=Nc2ccccc2/C1=C\c1c(O)n(-c2ccc(OC)cc2)c(=O)[nH]c1=O | inactive |
| O=C(O)CCn1cc(C=C2C(=O)NC(=O)NC2=O)c(-c2cc3ccccc3oc2=O)n1 | inactive |
| CC(C)CCn1c(N2CCN(c3cccc(Cl)c3)CC2)nc2c1c(=O)[nH]c(=O)n2C | active: 14.6 µM |
| Cc1nn(Cc2ccccc2)c(C)c1C(=O)OCC(=O)Nc1cc(S(C)(=O)=O)ccc1Cl | inconclusive: 29.1 µM [inhibitor, single point] |
| COC(=O)C1=C(c2cccc(OCc3ccccc3)c2)C[C@@H]2CC[C@H]1N2C(=O)NCCCc1ccccc1 | inconclusive: 29.1 µM [inhibitor, single point] |
| Cc1cc(S(=O)(=O)NCC(C)C)ccc1OCC(=O)N1CCN(Cc2ccccc2)CC1 | inconclusive: 16.4 µM [inhibitor, partial curve, poor fit] |
| CC1(C)CC(=O)C2=C(C1)NC(=O)C21C(C(=O)OC(C)(C)C)=C(N)Oc2ccc(Br)cc21 (stereo not drawn) | inactive |
| Clc1cccc(CNCCc2c[nH]c3ccccc23)c1 | inactive |
| Cc1cccc(OCCCn2c(=O)oc3ccccc32)c1 | inconclusive: 18.3 µM [activator, single point] |
| CN(C)CCCNCC(=O)Nc1ccc(Cl)cc1C(=O)c1ccccc1 | inactive |
| COCCCNC(=S)NNC(=O)c1ccc(C(C)(C)C)cc1 | inconclusive: 6.51 µM [activator, partial curve, poor fit] |

Filtered by structure: the compounds so far containing a carbonyl joined to an NH by a bond outside any ring (eleven)

| Compound | Potency |
| --- | --- |
| CN1CCN(CC(=O)Nc2ccc([N+](=O)[O-])cc2C(=O)c2ccccc2)CC1 | inactive |
| CN(CCc1ccccc1)C(=O)c1ccc(NC(=O)Cc2cccc([N+](=O)[O-])c2)cc1 | inconclusive: 18.3 µM [inhibitor, single point] |
| O=C(CSc1ccc(-c2ccco2)nn1)Nc1ccccc1 | inconclusive: 1.46 µM [inhibitor, single point] |
| COP(=O)(OC)C(NC(C)=O)C(Cl)(Cl)Cl (stereo not drawn) | inactive |
| O=C(N/N=C/c1c(O)n(CCC2=CCCCC2)c(=O)[nH]c1=O)c1ccccc1 | inconclusive: 18.4 µM [activator, partial curve, poor fit] |
| Cn1c(O)c(C=NCCN2CCN(C(=O)Nc3ccccc3)CC2)c(=O)n(C)c1=O | inactive |
| COCCCn1c(N)c(C(=O)Nc2ccccc2)c2nc3ccccc3nc21 | active: 16.4 µM |
| Cc1nn(Cc2ccccc2)c(C)c1C(=O)OCC(=O)Nc1cc(S(C)(=O)=O)ccc1Cl | inconclusive: 29.1 µM [inhibitor, single point] |
| COC(=O)C1=C(c2cccc(OCc3ccccc3)c2)C[C@@H]2CC[C@H]1N2C(=O)NCCCc1ccccc1 | inconclusive: 29.1 µM [inhibitor, single point] |
| CN(C)CCCNCC(=O)Nc1ccc(Cl)cc1C(=O)c1ccccc1 | inactive |
| COCCCNC(=S)NNC(=O)c1ccc(C(C)(C)C)cc1 | inconclusive: 6.51 µM [activator, partial curve, poor fit] |

3 compounds out of the list, sorted by SMILES length, rising.

| Compound | Potency |
| --- | --- |
| C=CCn1c(=O)c(C=Nc2cccnc2Cl)c(O)n(CCCC)c1=O | inactive |
| CC(C)CCn1c(N2CCN(c3cccc(Cl)c3)CC2)nc2c1c(=O)[nH]c(=O)n2C | active: 14.6 µM |
| COC(=O)C1=Nc2ccccc2/C1=C\c1c(O)n(-c2ccc(OC)cc2)c(=O)[nH]c1=O | inactive |

Remaining list, next part.

| Compound | Potency |
| --- | --- |
| O=C1OC(=O)C2C3CCC(O3)C12 (stereo not drawn) | inconclusive: 7.94 µM [activator, partial curve] |
| O=C1NC(=O)N(CCC2=CCCCC2)C(=O)/C1=C/c1ccc(O)cc1 | inconclusive: 25.9 µM [activator, single point] |
| COC(=O)C1=C(c2c(C)noc2C)C[C@@H]2CC[C@H]1N2C(=O)N1CCCCC1 | inconclusive: 14.6 µM [activator, partial curve, poor fit] |
| CC1CCC(NC(=O)c2cc3c(=O)n(C)c4ccccc4c3n2C)CC1 (stereo not drawn) | inconclusive: 18.4 µM [activator, single point] |
| CC(C)n1c(O)c(C2c3cc(Cl)ccc3Oc3[nH]c(=O)n(C(C)C)c(=O)c32)c(=O)[nH]c1=O (stereo not drawn) | inconclusive: 25.9 µM [inhibitor, single point] |
| CCn1c(P(C)(=O)O)nc2ccccc21 | inactive |
| Cn1nc(C(F)(F)F)c(-c2ccccc2)c1N | inconclusive: 29.1 µM [activator, partial curve, poor fit] |
| C=CCN1C(=O)NC(=O)/C(=C/c2ccoc2)C1=O | inactive |
| CCOC(=O)C(O)(c1ccc(NC(=S)NC(=O)c2ccc(Cl)cc2Cl)cc1)C(F)(F)F (stereo not drawn) | inactive |
| CCN(CC)P(=S)(c1c(C)nc2ccccn12)c1c(C)nc2ccccn12 | inactive |
| CCc1ccc(NC(=O)CCNC(=O)N2C[C@H]3C[C@@H](C2)c2cccc(=O)n2C3)cc1 | inconclusive: 9.2 µM [activator, partial curve, poor fit] |
| Cn1c(O)c(C(=Nc2ccc(F)cc2)c2ccccc2)c(=O)n(C)c1=O | inconclusive: 20.6 µM [inhibitor, single point] |
| Cc1cc(OC(C)C(=O)NCc2cccnc2)c2c3c(c(=O)oc2c1)CCC3 (stereo not drawn) | inconclusive: 20.6 µM [activator, single point] |
| CCCCn1c(O)c(/C(CC)=N/N2CCCCC2c2cccnc2)c(=O)[nH]c1=S (stereo not drawn) | inconclusive: 29.1 µM [inhibitor, single point] |
| CC(=O)O[C@H]1CC[C@@]2(C)[C@H](C1)C(=O)C[C@H]1[C@@H]3CC[C@@H]4[C@@H](CN5C[C@@H](C)CC[C@H]5[C@@]4(C)O)[C@@H]3C[C@@H]12 | inactive |
| C[C@H]1CC[C@H]2NCCN[C@H]2C1 | inconclusive: 0.58 µM [inhibitor, single point] |
| CCOP(=O)(C#Cc1ccccc1)C(O)c1ccc(Br)cc1 (stereo not drawn) | inconclusive: 18.3 µM [inhibitor, partial curve, poor fit] |
| CCC(=NC1CC1)c1c(O)n(C2CCCCC2)c(=O)[nH]c1=O | inactive |
| Nc1ccccc1C(=O)OCC(=O)N1CCc2ccccc21 | inconclusive: 16.4 µM [activator, partial curve] |
| Nc1c(C(=O)NCCc2ccccc2)c2nc3ccccc3nc2n1CCN1CCOCC1 | inconclusive: 18.4 µM [inhibitor, single point] |
| O=P(Nc1cccc(Cl)c1)(Oc1ccccc1)Oc1ccccc1 | inconclusive: 29.1 µM [inhibitor, single point] |
| CC(Cc1ccccc1)NCC(=O)Nc1cc(N(C)C)nc2ccccc12 (stereo not drawn) | inconclusive: 29.1 µM [inhibitor, single point] |
